Residue numbers refer to the chain shown, from its start. Read-outs that look alike come from different tables or passages of the source. Results are given in words; binding and its absence hold for the method and conditions named. In cells and extracts the contact can be indirect. Some entries that bind do so weakly or less than the wild type. For some assays here: Where a sequence is shown, tags or fusion partners need not be part of it.
Key:
[1] = biological target: T1, enkurin domain containing protein 1 (ENKD1), endogenous, human cells (human (endogenous in ARPE-19 and HEK293T)) (UniProt Q9H0I2); assay: co-IP; endogenous proteins, ARPE-19 lysate; immunoprecipitation buffer 20 mM Tris-HCl, 150 mM NaCl, 1 mM EDTA, 1 mM EGTA, 1% NP-40, 2.5 mM sodium pyrophosphate, 10% glycerol, pH 7.5; antibody-conjugated agarose beads, 4 °C, 4 h
T1 sequence: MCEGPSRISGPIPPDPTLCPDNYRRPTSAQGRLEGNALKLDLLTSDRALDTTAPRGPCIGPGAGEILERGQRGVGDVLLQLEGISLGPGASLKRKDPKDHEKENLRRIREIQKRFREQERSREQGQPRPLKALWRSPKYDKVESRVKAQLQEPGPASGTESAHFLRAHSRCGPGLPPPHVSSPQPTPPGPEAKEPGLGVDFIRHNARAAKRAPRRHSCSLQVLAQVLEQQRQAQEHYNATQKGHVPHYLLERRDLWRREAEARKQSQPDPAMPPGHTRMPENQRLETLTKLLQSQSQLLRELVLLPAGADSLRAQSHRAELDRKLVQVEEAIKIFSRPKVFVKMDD

The chains behind the UniProt entries cited, without tags or fusion partners.
UniProt P15311: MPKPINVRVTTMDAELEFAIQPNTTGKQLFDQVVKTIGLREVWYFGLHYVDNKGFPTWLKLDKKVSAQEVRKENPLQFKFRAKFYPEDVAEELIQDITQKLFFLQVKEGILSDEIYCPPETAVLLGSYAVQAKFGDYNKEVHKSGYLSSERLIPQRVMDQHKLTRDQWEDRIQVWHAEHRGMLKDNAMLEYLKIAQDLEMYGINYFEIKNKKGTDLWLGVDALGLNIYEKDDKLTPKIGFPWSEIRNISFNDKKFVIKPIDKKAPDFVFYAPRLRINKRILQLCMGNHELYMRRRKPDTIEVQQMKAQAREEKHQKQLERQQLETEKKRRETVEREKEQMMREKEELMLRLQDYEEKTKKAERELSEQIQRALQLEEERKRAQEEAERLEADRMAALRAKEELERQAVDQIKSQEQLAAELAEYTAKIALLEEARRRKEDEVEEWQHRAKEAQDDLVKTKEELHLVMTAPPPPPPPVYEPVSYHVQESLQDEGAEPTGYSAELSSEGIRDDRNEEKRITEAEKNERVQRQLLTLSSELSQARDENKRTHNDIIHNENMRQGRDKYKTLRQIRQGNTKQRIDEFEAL
UniProt P26040: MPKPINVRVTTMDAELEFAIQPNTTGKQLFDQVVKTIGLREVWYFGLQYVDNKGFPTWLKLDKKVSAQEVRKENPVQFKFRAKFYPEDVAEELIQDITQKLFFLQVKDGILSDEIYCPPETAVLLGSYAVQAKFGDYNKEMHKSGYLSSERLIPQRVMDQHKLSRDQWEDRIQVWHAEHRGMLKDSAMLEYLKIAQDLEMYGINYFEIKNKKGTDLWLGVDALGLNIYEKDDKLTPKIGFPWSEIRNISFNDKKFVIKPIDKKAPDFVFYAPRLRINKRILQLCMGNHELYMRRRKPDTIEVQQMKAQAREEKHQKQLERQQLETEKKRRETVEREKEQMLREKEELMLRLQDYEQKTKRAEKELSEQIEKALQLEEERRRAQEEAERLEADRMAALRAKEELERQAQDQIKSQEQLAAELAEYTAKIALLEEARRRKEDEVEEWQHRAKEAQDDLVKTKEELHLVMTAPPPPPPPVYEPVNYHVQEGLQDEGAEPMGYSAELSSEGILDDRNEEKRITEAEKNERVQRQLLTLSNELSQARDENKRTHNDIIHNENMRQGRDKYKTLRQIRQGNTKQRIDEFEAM

[2] = biological target: T2, ENKD1, endogenous, mouse RPE / retinal tissue (mouse (endogenous in mouse RPE tissue)) (UniProt Q7TSV9); assay: co-IP; endogenous proteins, lysates of mouse RPE / retinal tissue; WT and Cyld KO mice compared for ENKD1-Ezrin; immunoprecipitation buffer with 150 mM NaCl, 1% NP-40, pH 7.5, 4 °C, 4 h
T2 sequence: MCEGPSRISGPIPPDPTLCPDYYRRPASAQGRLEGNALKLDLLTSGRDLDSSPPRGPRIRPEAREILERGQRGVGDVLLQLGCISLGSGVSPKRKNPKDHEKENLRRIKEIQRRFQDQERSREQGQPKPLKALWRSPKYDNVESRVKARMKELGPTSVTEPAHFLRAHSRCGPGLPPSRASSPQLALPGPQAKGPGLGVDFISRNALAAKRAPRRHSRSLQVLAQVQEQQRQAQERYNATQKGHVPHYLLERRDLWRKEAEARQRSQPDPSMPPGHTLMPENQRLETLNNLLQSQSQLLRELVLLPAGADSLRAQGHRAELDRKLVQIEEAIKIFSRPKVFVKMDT

[3] = biological target: T3, HA-ENKD1 K141R/K242R (KK/RR) (human) (UniProt Q9H0I2); assay: co-IP; HEK293T cells transfected with tagged constructs (partner exogenous or endogenous); also with control or CYLD siRNAs and rescue with GFP, GFP-CYLD or GFP-CYLD C/S; immunoprecipitation buffer with 150 mM NaCl, 1% NP-40, pH 7.5, 4 °C, 4 h
T3 sequence: T1 sequence with K141R, K242R

HA-ENKD1 (human) = biological target: T4, HA-ENKD1 (human) (UniProt Q9H0I2); assay: as above
T4 sequence: T1 sequence

[4] = biological target: T2, ENKD1, endogenous, mouse RPE / retinal tissue (mouse (endogenous in mouse RPE tissue)); assay: co-IP; endogenous proteins, lysates of mouse RPE / retinal tissue; WT and Cyld KO mice compared for ENKD1-Ezrin; immunoprecipitation buffer with 150 mM NaCl, 1% NP-40, pH 7.5, 4 °C, 4 h; remark: listed apart in the source

Molecule: Ezrin, endogenous, ARPE-19 cells (from UniProt P15311 1-586)
- binding [1]: binds

Molecule: Ezrin, endogenous, mouse RPE / retinal tissue (from UniProt P26040 1-586)
- binding [2]: binds

Molecule: exogenous Ezrin with the indicated tag (GFP-Ezrin or Myc-Ezrin) (from UniProt P15311 1-586)
- binding [3]: binds
- binding (HA-ENKD1 (human)): binds

B1: CYLD, endogenous, mouse RPE tissue (protein, UniProt Q80TQ2 1-952)
chain: MSSGLWSQEKVTSPYWEERIFYLLLQECSVTDKQTQKLLKVPKGSIGQYIQDRSVGHSRVPSTKGKKNQIGLKILEQPHAVLFVDEKDVVEINEKFTELLLAITNCEERLSLFRNRLRLSKGLQVDVGSPVKVQLRSGEEKFPGVVRFRGPLLAERTVSGIFFGVELLEEGRGQGFTDGVYQGKQLFQCDEDCGVFVALDKLELIEDDDNGLESDFAGPGDTMQVEPPPLEINSRVSLKVGESTESGTVIFCDVLPGKESLGYFVGVDMDNPIGNWDGRFDGVQLCSFASVESTILLHINDIIPDSVTQERRPPKLAFMSRGVGDKGSSSHNKPKVTGSTSDPGSRNRSELFYTLNGSSVDSQQSKSKNPWYIDEVAEDPAKSLTEMSSDFGHSSPPPQPPSMNSLSSENRFHSLPFSLTKMPNTNGSMAHSPLSLSVQSVMGELNSTPVQESPPLPISSGNAHGLEVGSLAEVKENPPFYGVIRWIGQPPGLSDVLAGLELEDECAGCTDGTFRGTRYFTCALKKALFVKLKSCRPDSRFASLQPVSNQIERCNSLAFGGYLSEVVEENTPPKMEKEGLEIMIGKKKGIQGHYNSCYLDSTLFCLFAFSSALDTVLLRPKEKNDIEYYSETQELLRTEIVNPLRIYGYVCATKIMKLRKILEKVEAASGFTSEEKDPEEFLNILFHDILRVEPLLKIRSAGQKVQDCNFYQIFMEKNEKVGVPTIQQLLEWSFINSNLKFAEAPSCLIIQMPRFGKDFKLFKKIFPSLELNITDLLEDTPRQCRICGGLAMYECRECYDDPDISAGKIKQFCKTCSTQVHLHPRRLNHSYHPVSLPKDLPDWDWRHGCIPCQKMELFAVLCIETSHYVAFVKYGKDDSAWLFFDSMADRDGGQNGFNIPQVTPCPEVGEYLKMSLEDLHSLDSRRIQGCARRLLCDAYMCMYQSPTMSLYK
- binding [4]: binds

From paper PMC11615780
